# Literature values, collected in patent US20080139673A1, “POTENTIATION OF ANTIFUNGAL COMPOUNDS” (MethylGene Inc., priority 2006, published 2008).
# For at least one compound, name, drawing or mass did not settle the structure.
# Settings: cited from earlier work
structure (smiles),measurement,value
"CC(/C=C/C(=O)NO)=C\[C@@H](C)C(=O)c1ccc(N(C)C)cc1 [TSA, trichostatin A]",effect on minimum inhibitory concentration of fenpropimorph,reduced the minimum inhibitory concentration
